Experimental data published in publication PMC6868087, “Exploiting Curcumin Synergy With Natural Products Using Quantitative Analysis of Dose–Effect Relationships in an Experimental In Vitro Model of Osteoarthritis” (Frontiers in Pharmacology, 2019).

System: IL-1β mRNA expression
Experiment: IL-1β mRNA expression (RTqPCR) in LPS-stimulated human articular chondrocytes; Chou-Talalay median-effect and combination index analysis
Format: cell-based
Conditions: LPS 2 µg/ml, 4 h
Protocol: Human articular chondrocytes (ScienCell, CA, USA) were cultured in the specific Chondrocyte Medium (Cat. 4651; ScienCell, CA, USA) supplemented with 1% antibiotic mixture, in 5% CO2 humidified incubator at 37°C. The medium was renewed every 2 days and confluent chondrocytes were trypsinized, subdivided, and re-plated. In these experiments chondrocytes from passage 3 to 7 were used. Chondrocytes were cultured in six well culture plates at a density of 2.5 × 10^5 cells/well. Sixteen hours after seeding, a set of plates were treated with LPS (2 µg/ml; Escherichia coli serotype 055:B5; […] Total RNA was isolated from human chondrocytes for RTqPCR analysis using Trizol Reagent Kit (Life Technologies, Monza, Italy). […] RTqPCR was performed on both targets and endogenous control using SYBR Premix DimerEraser (Takara, Japan) and QuantStudio 6 Flex Real-Time PCR System (Applied Biosystems, CA, USA). The amplified PCR products were quantified by measuring the calculated cycle thresholds (CT) of targets and β-actin mRNA. The amounts of specific mRNA in samples were calculated using the 2^-ΔΔCT method. The mean value of investigated mRNA levels in LPS or IL-1β-stimulated chondrocytes was chosen as the calibrator, and the results are expressed as % of reduction compared to LPS or IL-1β controls. The IC50 value was calculated by fitting the progress curves to the four-parameter IC50 equation using GraphPad prism software version 5.03 (Graphpad software, CA, USA). Chou and Talalay multiple drug effect analysis was performed and it is based on the median-effect principle ([Chou and Talalay, 1984]; [Chou, 2006]). The Median Effect Equation states that fa/fu = (D/Dm) m, where D is the dose, fa and fu are the affected and the unaffected fractions, respectively, of IL-1β mRNA expression levels, by the dose D; Dm is the dose required to produce the median effect (i.e., IC50), and m is the Hill-type coefficient signifying the sigmoidicity of the dose–effect curve. […] The CI was calculated as: CI=[(D)1/(D50)1]+[(D) 2/(D50)2 […] The CI index was calculated using Grafit software.

[1] = curcumin/β-caryophyllene experiment

SMILES	m, Hill-type coefficient of median effect plot (curcumin/flavocoxid experiment)	m, Hill-type coefficient of median effect plot [1]
COc1cc(/C=C/C(=O)CC(=O)/C=C/c2ccc(O)c(OC)c2)ccc1O [curcumin]	1.835	1.38
C=C1CC/C=C(\C)CC[C@@H]2[C@@H]1CC2(C)C [β-caryophyllene]		0.88
